The campaign covered roughly 330,000 compounds. About 7,700 (2.3%) were called active. Inconclusive means that the source gave no clear call. Such entries were picked first, then a sample of the others. The call rests on the fitted dose curve; in most records, active means well fitted inhibition curve with a large enough effect; inconclusive means small, poorly fitted or top-dose-only effect, or effect the other way; inactive means flat fitted curve, though single readings scatter. Potencies of inconclusive entries are doubtful fits and often do not repeat.
Experiment: qHTS screen for small molecules that inhibit ELG1-dependent DNA repair in human embryonic kidney (HEK293T) cells expressing luciferase-tagged ELG1; further: nearly all actives have a fitted effect of over 55% in size
Conditions: HEK293T ELG1-luciferase reporter, luminescence, 16 h, DNA damage induced by 5-fluorouridine; activity change, negative = inhibition: at 46.1 µM (top of the series)
Procedure, shortened: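 Reporter activity after DNA damage by 5-fluorouridine is monitored. Compound-treated cells incubate 16 hr at 37 °C, then ONE-Glo is added for 30 min before luminescence reading.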
On the % scale 0 is the no-effect control and ±100 the full control effect; potency means the concentration at half of the fitted maximal effect.

Row | Structure (SMILES) | activity change, negative = inhibition | Potency
1 | O=C(NCC(c1ccc(F)cc1)N1CCOCC1)c1c(F)cccc1F (centres undefined) | inactive: -2.4% | 
2 | CC(C)Oc1ccc(S(=O)(=O)N2CCOCC2)cc1NC(=O)C1COc2ccccc2O1 (centres undefined) |  | inconclusive: 23.1 µM [inhibitor, single point]
3 | CCOc1ccc(CCNC(=O)c2ccc(Cl)c(S(=O)(=O)N3CCOCC3)c2)cc1OCC |  | active: 16.4 µM
4 | O=C(Cn1cnnn1)NCc1ccccc1 | inactive: 8.64% | 
5 | O=C(Nc1c(-c2ccccc2)nc2ccccn12)c1cccc(F)c1 | inactive: 3.01% | 
6 | C/C(=C\C(=O)c1ccccc1)Nc1ccc(Br)c(Cl)c1 |  | inconclusive: 35.5 µM [activator, single point]
7 | O=C(N/N=C/c1cccnc1)c1ccc2ccccc2c1O |  | inconclusive: 13 µM [activator, partial curve]
8 | COc1ccc(CNC(=O)Nc2cccs2)cc1OC | inactive: -1.17% | 
9 | O=C(Nc1ccc(Br)cc1)C1CCN(C(=O)c2ccc(F)cc2)CC1 | inactive: -14% | 
10 | CCOC(=O)N1CCN(C(=O)c2cc(OC)c(OC)c(OC)c2)CC1 | inactive: -10.9% | 
11 | C=CCNc1nc(-c2cccc(OC)c2O)nc2ccccc12 |  | inconclusive: 10.3 µM [inhibitor, partial curve]
12 | Cc1ccc(C(=O)N/N=C\c2ccccc2[N+](=O)[O-])cn1 |  | inconclusive: 16.4 µM [activator, partial curve]
13 | CSc1nc(NCc2ccco2)c2sc3nc(C(C)C)c4c(c3c2n1)CC(C)(C)OC4 |  | inconclusive: 5.17 µM [inhibitor, full curve]
14 | O=C(C1CCCN(S(=O)(=O)c2cccc3nsnc23)C1)N1CC=C(c2ccccc2)CC1 (centres undefined) |  | inconclusive: 29.1 µM [inhibitor, single point]
15 | CC(=O)Nc1ccc(S(=O)(=O)Nc2nc3ccccc3nc2N2CCc3ccccc3C2)cc1 |  | inconclusive: 16.4 µM [activator, partial curve, poor fit]
16 | CCSc1nnc(-c2ccccc2N)c(=O)[nH]1 |  | inconclusive: 12.6 µM [activator, partial curve, poor fit]
17 | COc1cc(OC)cc(C(=O)N[C@H](C(=O)OCC(=O)Nc2ccc(F)c(F)c2F)C(C)C)c1 |  | inconclusive: 29.1 µM [inhibitor, partial curve, poor fit]
18 | CCCn1c(N)c(C(=O)CSc2nnc(-c3ccoc3C)n2C)c(=O)n(C)c1=O | inactive: -8.13% | 
19 | Cn1c(=O)n(C)c2cc(/C=C3/NC(=O)N(Cc4ccccc4)C3=O)ccc21 |  | inconclusive: 2.59 µM [activator, full curve]
20 | OCCO | inactive: 14.5% | 
21 | CC(C)=CCc1c(O)ccc2c1OC(c1ccc(O)c(O)c1)CC2=O (centres undefined) | inactive: -1.28% | 
22 | CCNc1nc(Cl)nc(N(NC(C)=O)C(C)CC)n1 (centres undefined) | inactive: 1.08% | 
23 | COc1ccc(Cn2c(CCC(=O)Nc3ccc(CC#N)cc3)nc3cccnc32)cc1 | inactive: 5.43% | 
24 | Cc1ccc(NC(=O)CSc2nnc(-c3cc(C)[nH]n3)n2N)c(C)c1 |  | inconclusive: 25.9 µM [activator, single point]
25 | Cc1ccc(C(C)NC(=O)COC(=O)C2=COCCO2)cc1C (centres undefined) | inactive: 9.85% | 

Row | Structure (SMILES) | activity change, negative = inhibition | Potency
26 | CCOC(=O)c1c(C)[nH]c(=S)c(C#N)c1-c1ccc(OC)cc1 | inactive: -0.372% | 
27 | O=C(c1cccnc1)N1CCN(Cc2cccc(F)c2)CC1 | inactive: -5.6% | 
28 | O=C(Oc1ccc2c(=O)c(Oc3ccc4ccccc4c3)coc2c1)c1cncc(Br)c1 |  | inconclusive: 29.1 µM [activator, single point]
29 | Cc1cc(-c2nc(C)c(C(=O)NNS(=O)(=O)c3ccc(Cl)cc3Cl)s2)no1 | inactive: 12.7% | 
30 | COc1ccc([C@@H]2[C@@H]3C(=O)N(C(C)(C)C)C(=O)[C@@H]3[C@]3(Cc4ccccc4)C(=O)N(c4ccc(C)cc4)C(=O)N23)cc1 | inactive: 12.4% | 
31 | COC(=O)C1CCN(C(=O)c2sc3nc(-c4ccc(F)cc4)cn3c2C)CC1 |  | inconclusive: 29.1 µM [inhibitor, single point]
32 | COc1ccc(CN2CCN(C(=O)CCC(=O)c3ccc(C)s3)CC2)cc1OC |  | inconclusive: 32.6 µM [inhibitor, partial curve, poor fit]
33 | Cn1nc(C(=O)NCCN2CCOCC2)c2ccccc2c1=O |  | inconclusive: 23.1 µM [activator, single point]
34 | Cc1cccc(NC(=O)c2ccc(CN3CCc4ccccc4C3)cc2)c1C |  | inconclusive: 5.8 µM [inhibitor, partial curve]
35 | CC1=NN2C(=N)/C(=C\c3ccc(SCc4ccccc4)o3)C(=O)N=C2S1 | inactive: 0.486% | 
36 | Cc1cccc(Nc2nc(N)nc(CSC(=S)N3CCOCC3)n2)c1 | inactive: 28.3% | 
37 | OC(CNCC1COc2ccccc2O1)COc1ccccc1F (centres undefined) | inactive: 16.7% | 
38 | Cc1ccc(C)c(NC(=O)CCC(=O)N/N=C/c2ccc[nH]2)c1 | inactive: 6.38% | 
39 | CSc1nc(-c2ccccc2)nc(N2CCOCC2)c1C(C)=O |  | inconclusive: 29.1 µM [inhibitor, single point]
40 | COc1cccc(NC(=O)CN(C)C(=O)C2CC3C=CC2C3)c1 (centres undefined) |  | inconclusive: 29.1 µM [inhibitor, partial curve, poor fit]
41 | Cn1c(CC(=O)Nc2ccc(Cl)cc2)nnc1SCC(=O)N1CCOCC1 | inactive: 7.62% | 
42 | CC(C)NC(=O)NC(=O)CN1c2cccc3cccc(c23)S1(=O)=O | inactive: 1.18% | 
43 | CCC(C)(C(=O)NC1CCCCC1)N(Cc1ccco1)C(=O)Cc1cccs1 (centres undefined) | inactive: -8.12% | 
44 | CN(C)CCCn1c(N)c(C#N)c2nc(C#N)c(C#N)nc21 |  | inconclusive: 14.6 µM [inhibitor, partial curve]
45 | Oc1ccc(/C=N/NC(=S)Nc2cccnc2)cc1 |  | inconclusive: 7.3 µM [activator, partial curve]
46 | O=C(O)c1cccc(NC(=O)c2ccc3c(c2)C(=O)N(c2ccccc2)C3=O)c1 |  | inconclusive: 25.9 µM [activator, single point]
47 | O=C(Nc1ccc2c(c1)OCO2)c1noc2c1CCCC2 |  | inconclusive: 2.31 µM [activator, full curve]
48 | CC(C)(C)c1cc(=O)n(-c2ccccc2)[nH]1 |  | inconclusive: 10.3 µM [inhibitor, partial curve]
49 | Nc1nc2ccccc2n1C(=O)c1ccccc1 |  | inconclusive: 0.461 µM [activator, partial curve]
50 | CC(C)Cn1c(=O)c2ccccc2n2c(SCC(=O)N3c4ccccc4CC3C)nnc12 (centres undefined) |  | inconclusive: 16.4 µM [inhibitor, single point]

Row | Structure (SMILES) | activity change, negative = inhibition | Potency
51 | Cc1ccc(NC(=O)C2(c3ccccc3)CC2(Cl)Cl)cc1C (centres undefined) |  | inconclusive: 29.1 µM [activator, single point]
52 | CCn1cc(C(=O)NCCCN2CCCC(C)C2)c(=O)c2cc(S(=O)(=O)N(C)C3CCCCC3)ccc21 (centres undefined) | inactive: 7.61% | 
53 | Cc1cc(C)n(-c2ccc3nncn3n2)n1 |  | inconclusive: 25.9 µM [activator, partial curve, poor fit]
54 | Cc1cccc(N2CCN(C(=O)CCNS(=O)(=O)c3ccc4c(c3)CCC(=O)N4)CC2)c1C |  | active: 11.2 µM
55 | Fc1ccc(N2CCN(C3=Nc4cccc5cccc3c45)CC2)cc1 |  | inconclusive: 23.1 µM [activator, single point]
56 | CCOC(=O)/C(C(N)=NCC(C)C)=C(/O)c1ccccc1 | inactive: -8.91% | 
57 | COc1ccc(Cl)cc1NC(=O)CSc1nc(NS(=O)(=O)c2ccc(C)cc2)cc(=O)[nH]1 | inactive: 22.1% | 
58 | CC(=O)c1cccc(NC(=O)CSc2nc(=O)n(CCN3CCOCC3)c3c2CCCC3)c1 |  | inconclusive: 6.51 µM [activator, single point]
59 | O=C(Nc1cccc(C(F)(F)F)c1)c1cc(-c2ccc(F)cc2)on1 |  | inconclusive: 29.1 µM [activator, single point]
60 | COc1ccc(CN2CCN(C(=O)CC(C)C)CC2)c2ccccc12 |  | inconclusive: 23.1 µM [inhibitor, single point]
61 | CCCCOc1ccc(Br)cc1CSC(=N)N |  | active: 23.1 µM
62 | CC1CCCCN1C(=O)C1CCN(c2nc(-c3ccccc3)nc3c2CCC3)CC1 (centres undefined) |  | inconclusive: 23.1 µM [inhibitor, single point]
63 | COc1ccc(OC)c(/C=C2/Sc3ccccc3C2=O)c1 | inactive: 25.2% | 
64 | COc1ccc(-c2nnc(-c3ccc(OCC(C)C)cc3)o2)cc1 |  | inconclusive: 35.5 µM [activator, single point]
65 | Cn1nc(C(=O)NCc2cccc(F)c2)cc1C(=O)NCc1cccc(F)c1 |  | active: 11.6 µM
66 | O=C(NC(=S)Nc1nc2ccc(F)cc2s1)c1ccco1 |  | inconclusive: 5.8 µM [activator, partial curve]
67 | Cc1ccc(/C=N/N=C2\SCC(=O)N2CC2CC2)cc1 | inactive: 6.23% | 
68 | Cc1cc(OCC(O)CN)ccc1Cl (centres undefined) |  | inconclusive: 6.51 µM [inhibitor, single point]
69 | COc1ccc(-c2nn(C)c(=O)c3ccccc23)cc1NS(C)(=O)=O |  | inconclusive: 18.4 µM [activator, partial curve]
70 | O=C(C1CCC1)N1CCc2cc(S(=O)(=O)N3CCN(c4ccccn4)CC3)ccc21 |  | active: 18.4 µM
71 | CSc1nc2nc3c(cc2c(=O)n1-c1cccc(C)c1)COC(C)(C)C3 |  | active: 20.6 µM
72 | CCN(CC(=O)Nc1ccc2c(c1)OCCO2)C(=O)c1ccc(CS(C)(=O)=O)cc1 |  | inconclusive: 20.6 µM [activator, single point]
73 | O=C(Cn1ncc2c3ccccc3n(Cc3ccccc3)c2c1=O)N1CCN(c2ncccn2)CC1 |  | inconclusive: 23.1 µM [inhibitor, single point]
74 | O=C(Cc1ccc(N2CCNC2=O)cc1)N1CCCC(Nc2cccc(F)c2)C1 (centres undefined) |  | inconclusive: 20.6 µM [inhibitor, single point]

Entries shown so far that have a furan ring, fused or not (5):
Row | Structure (SMILES) | activity change, negative = inhibition | Potency
13 | CSc1nc(NCc2ccco2)c2sc3nc(C(C)C)c4c(c3c2n1)CC(C)(C)OC4 |  | inconclusive: 5.17 µM [inhibitor, full curve]
18 | CCCn1c(N)c(C(=O)CSc2nnc(-c3ccoc3C)n2C)c(=O)n(C)c1=O | inactive: -8.13% | 
35 | CC1=NN2C(=N)/C(=C\c3ccc(SCc4ccccc4)o3)C(=O)N=C2S1 | inactive: 0.486% | 
43 | CCC(C)(C(=O)NC1CCCCC1)N(Cc1ccco1)C(=O)Cc1cccs1 (centres undefined) | inactive: -8.12% | 
66 | O=C(NC(=S)Nc1nc2ccc(F)cc2s1)c1ccco1 |  | inconclusive: 5.8 µM [activator, partial curve]
